# PubChem BioAssay AID652259, Drosophila RNAi Screening Center | 2013
# Screen: 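Identify new Wingless signalling regulators in fly cells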 (primary screen)
# Cells: Drosophila clone 8 imaginal disc epithelial cells
# Reagents: long dsRNA against Drosophila genes
# Conditions: pathway stimulated by co-transfected Wingless expression plasmid
# Measurement: 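Dual luciferase reads per well after Wingless plasmid stimulation: reporter firefly light and Renilla control light; activity is firefly divided by Renilla, a ratio not deposited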
# Direction: firefly reporter light: higher = more Wg reporter light, before normalisation; Renilla control light: higher = more transfected or surviving cells
# Hit rule: 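Strong candidates differ from their plate mean by at least two out of four per-plate statistical tests; weak candidates meet just one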
# Calls: active = candidate regulator (raises or lowers reporter); inactive = not a candidate
# In all, the deposit lists about 22,000 reagents; below is an unselected part of those with a known target gene and a result. Over the whole deposit, 233 (1.1%) were called active. 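Light values are raw, unnormalised plate reads; the ratio scores behind the reporter calls were not deposited.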 Reagents against one gene are numbered here. Names joined by + are all predicted targets of the reagent. Not stated in the record: the amount of reagent, the time to read-out, the dose of the treatment.
Gene,reagent,"reporter change call, replicate 1","firefly reporter light, replicate 1","firefly reporter light, replicate 2","Renilla control light, replicate 1","Renilla control light, replicate 2",outcome
Lcp1Psi (GeneID 3772468),1,,20368,,11219,,inactive
CG34263 (GeneID 5740488),1,,3574,,1633,,inactive
ap (GeneID 35509),1,,8937,,2219,,inactive
Sclp (GeneID 32156),1,,3905,9149,1349,2448,inactive
Dci (GeneID 38100),1,,3287,,933,,inactive
betaTub97EF (GeneID 43359),1,,9319,,3424,,inactive
betaTub97EF (GeneID 43359),2,,8343,,3458,,inactive
betaTub97EF (GeneID 43359),3,,9724,,3969,,inactive
CG10183 (GeneID 42782),1,,14344,,10176,,inactive
bnb (GeneID 32872),1,,3552,7724,1353,2764,inactive
CG16758 (GeneID 38315),1,,1452,,829,,inactive
CG16758 (GeneID 38315),2,,17523,,4144,,inactive
CG18011 (GeneID 36068),1,,8944,,2540,,inactive
CG18011 (GeneID 36068),2,,2861,7556,1212,3575,inactive
CG14257 (GeneID 43257),1,,6794,,2662,,inactive
CG9926 (GeneID 41700),1,,5104,,2392,,inactive
Acp63F (GeneID 38448),1,,6553,,2899,,inactive
nonC (GeneID 31625),1,,1411,7984,585,2832,inactive
nonC (GeneID 31625),2,,15936,,6853,,inactive
CG46441 (GeneID 42423),1,,3571,10778,1836,2925,inactive
Ssk (GeneID 40207),1,,4295,,1856,,inactive
Slh (GeneID 33434),1,,3136,5482,1404,2554,inactive
Slh (GeneID 33434),2,,4269,10096,952,2370,inactive
CG14312 (GeneID 42195),1,,12468,,2764,,inactive
CG15646 (GeneID 32501),1,,15491,,7171,,inactive
Mettl3 (GeneID 42844),1,,13296,,13328,,inactive
Kdm2 (GeneID 41090),1,,6357,,2343,,inactive
Prosbeta4R2 (GeneID 33451),1,,5469,,3488,,inactive
CG31784 (GeneID 318939),1,,18918,,6930,,inactive
sno (GeneID 32273),1,,3990,10531,1080,2387,inactive
cib (GeneID 31359),1,,22985,,11680,,inactive
Idh (GeneID 44291),1,,4152,,2305,,inactive
nab (GeneID 3346237),1,,6787,,3611,,inactive
nab (GeneID 3346237),2,Wg reporter activity raised,5680,,2594,,inactive
CG14118 (GeneID 39465),1,,6290,,1856,,inactive
CG12522 (GeneID 39248),1,,1974,,1012,,inactive
Cap-H2 (GeneID 41289),1,,5164,,2280,,inactive
Sxl (GeneID 3772180),1,,2882,9984,921,2480,inactive
Sxl (GeneID 3772180),2,,26053,,14022,,inactive
Sxl (GeneID 3772180),3,,4.33e5,4.81e5,1.90e5,1.88e5,inactive
Mitf (GeneID 3885647),1,,27685,,19814,,inactive
Cpes (GeneID 37782),1,,10011,,2604,,inactive
Zip42C.2 (GeneID 35580),1,,3853,11077,597,3014,inactive
nahoda (GeneID 37641),1,,19987,,11318,,inactive
nahoda (GeneID 37641),2,,13984,,4717,,inactive
CG12107 (GeneID 35712),1,,11301,,2160,,inactive
Obp47b + CG7741,1,Wg reporter activity raised,10115,,2899,,inactive
Ote (GeneID 37090),1,,16611,,4343,,inactive
Mur82C (GeneID 40574),1,,2600,,902,,inactive
Mur82C (GeneID 40574),2,,25222,7.59e5,7016,2.82e5,inactive
